No constants are given. Whether binding was seen depends on the method and setting. Some entries that bind do so weakly or less than the wild type. Values belong to the binder of their own block, whether it stands above or below them.
Experiments:
[1] = target: MyoVa-GTD-S1651E/S1652E (globular tail domain of myosin Va, phosphomimetic) (human) (UniProt Q9Y4I1); assay: two-hybrid; pairwise validation; Y2H Gold cells co-transformed with pGBKT7 and pGADT7 vectors, 30°C, 4 days on QDO/X/A agar (four reporter genes); empty pGBKT7 as negative control
[2] = target: MyoVa-GTD-S1651E/S1652E (globular tail domain of myosin Va, phosphomimetic) (human) (UniProt Q9Y4I1); assay: two-hybrid; Matchmaker Gold screen; bait pGBKT7-EE in S. cerevisiae Y2H Gold against a universal human-normalized cDNA library (pGADT7 preys); clones positive for HIS3, ADE2, AUR1-C and MEL1

Amino acid sequences for entries named in this document (tags omitted). A change or cut given only in a name is not applied to a line headed by its entry. Chains listed by the source or under a name are the forms on record and can include a tag or linker.
MyoVa-GTD-S1651E/S1652E (globular tail domain of myosin Va, phosphomimetic) (Q9Y4I1, form named): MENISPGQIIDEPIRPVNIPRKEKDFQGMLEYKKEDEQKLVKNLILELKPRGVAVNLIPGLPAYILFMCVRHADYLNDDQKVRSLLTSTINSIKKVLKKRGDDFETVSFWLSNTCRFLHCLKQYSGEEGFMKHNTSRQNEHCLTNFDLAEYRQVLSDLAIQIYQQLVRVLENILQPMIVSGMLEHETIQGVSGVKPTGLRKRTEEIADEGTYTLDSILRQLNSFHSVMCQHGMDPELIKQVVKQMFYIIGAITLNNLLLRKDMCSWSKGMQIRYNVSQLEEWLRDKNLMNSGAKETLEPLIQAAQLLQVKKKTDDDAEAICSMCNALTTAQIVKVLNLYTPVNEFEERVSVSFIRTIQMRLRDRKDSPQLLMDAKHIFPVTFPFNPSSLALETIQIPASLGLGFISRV

- binding [1]: binds
- binding [2]: binds
B1: SMS 90-366, catalytic domain of spermine synthase (two-hybrid prey, clone 123) (domain or fragment, UniProt P52788 90-366)
chain: LNKVEERMKELSQDSTGRVKRLPPIVRGGAIDRYWPTADGRLVEYDIDEVVYDEDSPYQNIKILHSKQFGNILILSGDVNLAESDLAYTRAIMGSGKEDYTGKDVLILGGGDGGILCEIVKLKPKMVTMVEIDQMVIDGCKKYMRKTCGDVLDNLKGDCYQVLIEDCIPVLKRYAKEGREFDYVINDLTAVPISTSPEEDSTWEFLRLILDLSMKVLKQDGKYFTQGNCVNLTEALSLYEEQLGRLYCPVEFSKEIVCVPSYLELWVFYTVWKKAKP

- binding [1]: binds
- binding [2]: binds
B2: TC2N 277-490, holds the second C2 domain of tandem C2 domains nuclear protein (two-hybrid prey, clone 142) (domain or fragment, UniProt Q8N9U0-1 277-490)
chain: KSSAKEGSNAIEFMETFVFAIKLQNLQTVRLVFKIQTQTPRKKTIGECSMSLRTLSTQEMDYSLDITPPSKISVCHAELELGTCFQAVNSRIQLQILEARYLPSSSTPLTLSFFVKVGMFSSGELIYKKKTRLLKASNGRVKWGETMIFPLIQSEKEIVFLIKLYSRSSVRRKHFVGQIWISEDSNNIEAVNQWKETVINPEKVVIRWHKLNPS

- binding [1]: binds
- binding [2]: binds
B3: CSDE1 692-798, holds the SUZ-C domain of cold shock domain-containing protein E1 (two-hybrid prey, clone 186) (domain or fragment, UniProt O75534-1 692-798)
chain: VGDSKKLFFHVKEVQDGIELQAGDEVEFSVILNQRTGKCSACNVWRVCEGPKAVAAPRPDRLVNRLKNITLDDASAPRLMVLRQPRGPDNSMGFGAERKIRQAGVID
